Each number is a percent effect as filed. The controls that fix the scale are not given in the record; negative values are as filed. Compounds were drawn at random from those tested, without regard to their results. Two or more numbers in one place are separate tests of the same structure; such repeats can differ widely.

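Viability assay of Plasmodium falciparum sporozoites; the read-out is not stated. The concentration is filed as 10 mM, unlikely as a test dose, so the dose is not known. Higher reads as lower viability (inferred: compounds with an IC50 in retests scored well above the rest). Strong results were mostly tested again. About 34,000 compounds were tested under these conditions; 0.84% (about 280) showed 50% or more at least once.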

{"smiles": "Cn1ccc(C(=O)NCc2ccccc2CN2CCCC2)cc1=O", "Percent Effect": 4.057}
{"smiles": "CCc1nnc(CN(CC)C(=O)C2CC(=O)N(C3CC3)C2)o1", "stereo": "stereo not drawn", "Percent Effect": -6}
{"smiles": "CC(=O)Oc1ccnc(C(F)(F)F)c1C(C)=O", "Percent Effect": -5.658}
{"smiles": "CC(C)c1ccsc1C(=O)N1CCCN(Cc2cscn2)CC1", "Percent Effect": -1.618}
{"smiles": "Cn1ccnc1CN1C[C@@H](CN2CCCCCC2)[C@@H](CO)C1", "Percent Effect": -1.171}
{"smiles": "NC(=O)c1nnn(-c2ccc(Br)cc2)n1", "Percent Effect": -3.24}
{"smiles": "CC(C)CN1CCC(c2nc3c([nH]2)CC(C)(C)CNC3=O)C1", "stereo": "stereo not drawn", "Percent Effect": -17.53}
{"smiles": "CCn1cc(S(=O)(=O)N2CCCC3(CC=CNC3=O)C2)c(C)n1", "stereo": "stereo not drawn", "Percent Effect": -5.115}
{"smiles": "Cc1cnn(C2CCCN(C(=O)c3cc(C4CC4)on3)C2)c1", "stereo": "stereo not drawn", "Percent Effect": 7.246}
{"smiles": "Cc1cnn(CC2CCCCN2C(=O)c2n[nH]c3ccccc23)c1", "stereo": "stereo not drawn", "Percent Effect": 12.46}
{"smiles": "CC(C)n1cc(C(=O)N2Cc3ccccc3OC3(CCOCC3)C2)cn1", "Percent Effect": 5.569}
{"smiles": "Cc1nccn1-c1ccc(CN2CC3C[C@@H](O)CN3C[C@@H]2C)cc1", "stereo": "stereo partly drawn", "Percent Effect": 8.44}
{"smiles": "O=C(O)C(F)(F)F.O=C(O)C(F)(F)F.O=C(O)C(F)(F)F.[H][C@@]12CN(Cc3ccccn3)C[C@]1([H])OCCN2c1ccc(C)nn1", "Percent Effect": -10.77}
{"smiles": "O=C1CN(C(=O)c2ccc(Cl)cc2)CC(O)CN1Cc1cccs1", "stereo": "stereo not drawn", "Percent Effect": -21.8}
{"smiles": "CN(C)CCN1C(=O)C2(CCN(CC3CC3)CC2)c2ccccc21.O=C(O)C(F)(F)F.O=C(O)C(F)(F)F", "Percent Effect": 2.869}
{"smiles": "CN1CCN(c2cc(CCNC(=O)C3CCC3)nc(C3CC3)n2)CC1", "Percent Effect": -3.91}
{"smiles": "Fc1ccccc1-c1noc2c1CN(CC1CC1)CC2", "Percent Effect": 22.08}
{"smiles": "O=C(O)C(F)(F)F.[H][C@@]12CCN(Cc3ccccc3)C[C@@]1([H])O[C@@H](C(=O)NCC1CCOCC1)C2", "Percent Effect": 4.89}
{"smiles": "CN1CCN([C@@H]2CN(C(=O)c3cc4cccc(F)c4[nH]3)C[C@H]2O)CC1", "Percent Effect": 1.776}
{"smiles": "CC(=O)N1CCN(c2cc(C)ncn2)CC(CO)C1", "stereo": "stereo not drawn", "Percent Effect": 12.17}
{"smiles": "Cc1noc(C2CCCN(C(=O)c3ccc(Br)cc3F)C2)n1", "stereo": "stereo not drawn", "Percent Effect": -12.95}
{"smiles": "Cc1ccc(C(=O)N2CCC3(CC2)CN(c2ccccn2)CCO3)cc1.O=C(O)C(F)(F)F", "Percent Effect": -2.973}
{"smiles": "CC(C)c1ncc(CN2C[C@@H](CN3CCCN(C)CC3)[C@@H](CO)C2)cn1", "Percent Effect": -37.75}
{"smiles": "COc1ccc(CN(C)[C@@H]2CN(C(=O)c3ccccc3)C[C@H]2O)cc1", "Percent Effect": 13.08}
{"smiles": "CCn1cc2c(n1)CN(Cc1ccoc1)CC2COCC1CC1.O=C(O)C(F)(F)F", "stereo": "stereo not drawn", "Percent Effect": -13.08}
{"smiles": "[H][C@@]12CCN(C(=O)c3occc3C)C[C@]1(COCc1ccncc1)CCO2", "Percent Effect": -5.028}
{"smiles": "O=C1CCC2(CCN(CC[C@@H](O)c3ccccc3)CC2)CN1CC1CC1", "Percent Effect": -17.95}
{"smiles": "O=C(O)C(F)(F)F.[H][C@]12C[C@@H](CN(C)C)N(C(C)=O)[C@@]1([H])CCN(C(=O)c1cnc(C)cn1)C2", "Percent Effect": 3.065}
{"smiles": "CN(Cc1cccc(O)c1)C(=O)Nc1cccnc1N1CCCC1", "Percent Effect": 10.32}
{"smiles": "CS(=O)(=O)NCC1CCCN(C(=O)c2ccc3c(c2)CCCC3)C1", "stereo": "stereo not drawn", "Percent Effect": "18.06 & 10.86"}
{"smiles": "CN(CCO)C(=O)c1coc(CN2CCN(c3ccccc3F)CC2)n1", "Percent Effect": -6.867}
{"smiles": "Cc1ccc(NC(=O)N(C)Cc2cnn(C)c2)cc1OCC(F)F", "Percent Effect": 17.92}
{"smiles": "COCc1noc(-c2ccc(N(C)Cc3c(C)n[nH]c3C)nc2)n1", "Percent Effect": 1.667}
{"smiles": "CCOC(=O)C1CCN(C(=O)Cn2ccc3cc(Br)ccc32)CC1", "Percent Effect": 6.579}
{"smiles": "Cn1cnc2ccc(NC(=O)CC3CCN(C4CCCCC4)CC3)cc21", "Percent Effect": 11.69}
{"smiles": "O=C(O)C(F)(F)F.[H][C@@]12CCCO[C@]1([H])[C@H](NC(=O)c1cnoc1C)CN(CCOCC)C2", "Percent Effect": 12.24}
{"smiles": "O=C(NCC(F)F)c1ccc(S(=O)(=O)N2CCCC(O)C2)cc1", "stereo": "stereo not drawn", "Percent Effect": -4.827}
{"smiles": "CC(C)(C)c1ncc(C(=O)NCCS(N)(=O)=O)s1", "Percent Effect": -4.808}
{"smiles": "CCNC(=O)NC(=O)CN(CC(C)O)c1ccccc1", "stereo": "stereo not drawn", "Percent Effect": -3.344}
{"smiles": "COc1ccc(C)cc1C(C(=O)O)N1CCN(Cc2ccccn2)CC1", "stereo": "stereo not drawn", "Percent Effect": -0.5513}
{"smiles": "CCOCc1nc2c(c(NC(CC)c3cccnc3)n1)CCNCC2", "stereo": "stereo not drawn", "Percent Effect": -11.5}
{"smiles": "Cc1cn2nc(N3CCCN(Cc4noc(C)n4)CC3)sc2n1", "Percent Effect": -5.728}
{"smiles": "O=C(NCCCn1nc2ccccn2c1=O)NCc1ccccc1", "Percent Effect": 7.791}
{"smiles": "c1cncc(CNc2cccc(OCCN3CCCCC3)c2)c1", "Percent Effect": -4.796}
{"smiles": "CN(C)C(=O)N1CC(=O)NCC12CCN(C(=O)c1ccco1)C2", "stereo": "stereo not drawn", "Percent Effect": -0.6843}
{"smiles": "CC1(C)CC(N2Cc3nc(N)ncc3C2=O)CC(C)(C)N1", "Percent Effect": -8.724}

4 of the entries, repeated:

SMILES	Percent Effect
O=C(O)C(F)(F)F.[H][C@]12C[C@@H](CN(C)C)N(C(C)=O)[C@@]1([H])CCN(C(=O)c1cnc(C)cn1)C2	3.065
O=C(O)C(F)(F)F.O=C(O)C(F)(F)F.O=C(O)C(F)(F)F.[H][C@@]12CN(Cc3ccccn3)C[C@]1([H])OCCN2c1ccc(C)nn1	-10.77
CS(=O)(=O)NCC1CCCN(C(=O)c2ccc3c(c2)CCCC3)C1 (stereo not drawn)	18.06 & 10.86
Cc1noc(C2CCCN(C(=O)c3ccc(Br)cc3F)C2)n1 (stereo not drawn)	-12.95

Measurements from “University of Dundee, Small-Polar-MMV Screening Library” (2021), ChEMBL document CHEMBL3988442.